# Values of other authors in patent US20130216482A1, “METHODS AND COMPOSITIONS FOR NON-INVASIVE, DYNAMIC IMAGING OF INTESTINAL MOTILITY” (The Board of Regents of the University of Texas System, priority 2012, published 2013).
# Settings: systemic (i.v.) administration; then taken up by the liver and secreted into the bile; cited from earlier work
structure (smiles),measurement,value
"CC1(C)C(/C=C/C=C/C=C/C=C2\N(CCCCS(=O)(=O)O)c3ccc4ccccc4c3C2(C)C)=[N+](CCCCS(=O)(=O)[O-])c2ccc3ccccc3c21 [ICG, indocyanine green]",normal biological half-life,2-4 min
